According to US20250353895A1, “METHOD FOR ANALYZING G-PROTEIN CONJUGATED RECEPTOR” (Kao Corporation, priority 2022, published 2025):

Test system: HEK293 cells
Experiment: Measurement of receptor protein level on cell membrane (flow cytometry), receptor gene co-transfected with RTP1S
Format: cell-based, human
Settings: for change in membrane expression level by the consensus design method: consensus receptor compared with original receptor, HEK293 cells, average values of three experiments; for Original Membrane expression level (%): original receptor on HEK293 cells, PE signal normalised, NC (no receptor) 0%, PC (FLAG-M2 acetylcholine receptor) 100%, average of three experiments

## MrgprF: original human Mas-related G protein-coupled receptor MrgprF [reference compound]
  change in membrane expression level by the consensus design method: increase
  Original Membrane expression level (%): 95.21%

## GPR31: original human GPR31 [reference compound]
  change in membrane expression level by the consensus design method: increase
  Original Membrane expression level (%): 55.21%

## GPR88: original human GPR88 [reference compound]
  change in membrane expression level by the consensus design method: increase
  Original Membrane expression level (%): 7.25%

## GPR65: original human GPR65 [reference compound]
  change in membrane expression level by the consensus design method: increase
  Original Membrane expression level (%): 39.00%

## MrgprE: original human Mas-related G protein-coupled receptor MrgprE [reference compound]
  change in membrane expression level by the consensus design method: increase
  Original Membrane expression level (%): 18.59%

## GPR82: original human GPR82 [reference compound]
  change in membrane expression level by the consensus design method: increase
  Original Membrane expression level (%): 99.43%

B1: TAS2R46: original human bitterness receptor TAS2R46 (protein, listed as Homo sapiens)
chain: MITFLPIIFSILIVVTFVIGNFANGFIALVNSIEWFKRQKISFADQILTALAVSRVGLLWVLVLNWYATELNPAFNSIEVRITAYNVWAVINHFSNWLATSLSIFYLLKIANFSNLIFLHLKRRVKSVVLVILLGPLLFLVCHLFVINMNQIIWTKEYEGNMTWKIKLRSAMYLSNTTVTILANLVPFTLTLISFLLLICSLCKHLKKMQLHGKGSQDPSMKVHIKALQTVTSFLLLCAIYFLSIIMSVWSFESLENKPVFMFCEAIAFSYPSTHPFILIWGNKKLKQTFLSVLWHVRYWVKGEKPSSS
  change in membrane expression level by the consensus design method: increase
  Original Membrane expression level (%): 2.83%

B2: TAAR1: original human trace amine-associated receptor TAAR1 (protein, listed as Homo sapiens)
chain: MMPFCHNIINISCVKNNWSNDVRASLYSLMVLIILTTLVGNLIVIVSISHFKQLHTPTNWLIHSMATVDFLLGCLVMPYSMVRSAEHCWYFGEVFCKIHTSTDIMLSSASIFHLSFISIDRYYAVCDPLRYKAKMNILVICVMIFISWSVPAVFAFGMIFLELNFKGAEEIYYKHVHCRGGCSVFFSKISGVLTFMTSFYIPGSIMLCVYYRIYLIAKEQARLISDANQKLQIGLEMKNGISQSKERKAVKTLGIVMGVFLICWCPFFICTVMDPFLHYIIPPTLNDVLIWFGYLNSTFNPMVYAFFYPWFRKALKMMLFGKIFQKDSSRCKLFLELSS
  change in membrane expression level by the consensus design method: increase
  Original Membrane expression level (%): 54.87%

B3: TAAR2: original human trace amine-associated receptor TAAR2 (protein, listed as Homo sapiens)
chain: MAVSSEQHELSHFKRTQTKKEKFNCSEYGNRSCPENERSLGVRVAMYSFMAGSIFITIFGNLAMIISISYFKQLHTPTNFLILSMAITDFLLGFTIMPYSMIRSVENCWYFGLTFCKIYYSFDLMLSITSIFHLCSVAIDRFYAICYPLLYSTKITIPVIKRLLLLCWSVPGAFAFGVVFSEAYADGIEGYDILVACSSSCPVMFNKLWGTTLFMAGFFTPGSMMVGIYGKIFAVSRKHAHAINNLRENQNNQVKKDKKAAKTLGIVIGVFLLCWFPCFFTILLDPFLNFSTPVVLFDALTWFGYFNSTCNPLIYGFFYPWFRRALKYILLGKIFSSCFHNTILCMQKESE
  change in membrane expression level by the consensus design method: increase
  Original Membrane expression level (%): 0.13%

B4: TAAR5: original human trace amine-associated receptor TAAR5 (protein, listed as Homo sapiens)
chain: MRAVFIQGAEEHPAAFCYQVNGSCPRTVHTLGIQLVIYLACAAGMLIIVLGNVFVAFAVSYFKALHTPTNFLLLSLALADMFLGLLVLPLSTIRSVESCWFFGDFLCRLHTYLDTLFCLTSIFHLCFISIDRHCAICDPLLYPSKFTVRVALRYILAGWGVPAAYTSLFLYTDVVETRLSQWLEEMPCVGSCQLLLNKFWGWLNFPLFFVPCLIMISLYVKIFVVATRQAQQITTLSKSLAGAAKHERKAAKTLGIAVGIYLLCWLPFTIDTMVDSLLHFITPPLVFDIFIWFAYFNSACNPIIYVFSYQWFRKALKLTLSQKVFSPQTRTVDLYQE
  change in membrane expression level by the consensus design method: increase
  Original Membrane expression level (%): 0.05%

B5: TAAR6: original human trace amine-associated receptor TAAR6 (protein, listed as Homo sapiens)
chain: MSSNSSLLVAVQLCYANVNGSCVKIPFSPGSRVILYIVFGFGAVLAVFGNLLVMISILHFKQLHSPTNFLVASLACADFLVGVTVMPFSMVRTVESCWYFGRSFCTFHTCCDVAFCYSSLFHLCFISIDRYIAVTDPLVYPTKFTVSVSGICISVSWILPLMYSGAVFYTGVYDDGLEELSDALNCIGGCQTVVNQNWVLTDFLSFFIPTFIMIILYGNIFLVARRQAKKIENTGSKTESSSESYKARVARRERKAAKTLGVTVVAFMISWLPYSIDSLIDAFMGFITPACIYEICCWCAYYNSAMNPLIYALFYPWFRKAIKVIVTGQVLKNSSATMNLFSEHI
  change in membrane expression level by the consensus design method: increase
  Original Membrane expression level (%): 0.10%

B6: TAAR8: original human trace amine-associated receptor TAAR8 (protein, listed as Homo sapiens)
chain: MTSNFSQPVVQLCYEDVNGSCIETPYSPGSRVILYTAFSFGSLLAVFGNLLVMTSVLHFKQLHSPTNFLIASLACADFLVGVTVMLFSMVRTVESCWYFGAKFCTLHSCCDVAFCYSSVLHLCFICIDRYIVVTDPLVYATKFTVSVSGICISVSWILPLTYSGAVFYTGVNDDGLEELVSALNCVGGCQIIVSQGWVLIDFLLFFIPTLVMIILYSKIFLIAKQQAIKIETTSSKVESSSESYKIRVAKRERKAAKTLGVTVLAFVISWLPYTVDILIDAFMGFLTPAYIYEICCWSAYYNSAMNPLIYALFYPWFRKAIKLILSGDVLKASSSTISLFLE
  change in membrane expression level by the consensus design method: increase
  Original Membrane expression level (%): 0.06%

B7: TAAR9: original human trace amine-associated receptor TAAR9 (protein, listed as Homo sapiens)
chain: MVNNFSQAEAVELCYKNVNESCIKTPYSPGPRSILYAVLGFGAVLAAFGNLLVMIAILHFKQLHTPTNFLIASLACADFLVGVTVMPFSTVRSVESCWYFGDSYCKFHTCFDTSFCFASLFHLCCISVDRYIAVTDPLTYPTKFTVSVSGICIVLSWFFSVTYSFSIFYTGANEEGIEELVVALTCVGGCQAPLNQNWVLLCFLLFFIPNVAMVFIYSKIFLVAKHQARKIESTASQAQSSSESYKERVAKRERKAAKTLGIAMAAFLVSWLPYLVDAVIDAYMNFITPPYVYEILVWCVYYNSAMNPLIYAFFYQWFGKAIKLIVSGKVLRTDSSTTNLFSEEVETD
  change in membrane expression level by the consensus design method: increase
  Original Membrane expression level (%): 0.25%

B8: VN1R1: original human vomeronasal receptor VN1R1 (protein, listed as Homo sapiens)
chain: MVGDTLKLLSPLMTRYFFLLFYSTDSSDLNENQHPLDFDEMAFGKVKSGISFLIQTGVGILGNSFLLCFYNLILFTGHKLRPTDLILSQLALANSMVLFFKGIPQTMAAFGLKYLLNDTGCKFVFYYHRVGTRVSLSTICLLNGFQAIKLNPSICRWMEIKIRSPRFIDFCCLLCWAPHVLMNASVLLLVNGPLNSKNSSAKNNYGYCSYKASKRFSSLHAVLYFSPDFMSLGFMVWASGSMVFFLYRHKQQVQHNHSNRLSCRPSQEARATHTIMVLVSSFFVFYSVHSFLTIWTTVVANPGQWIVTNSVLVASCFPARSPFVLIMSDTHISQFCFACRTRKTLFPNLVVMP
  change in membrane expression level by the consensus design method: increase
  Original Membrane expression level (%): −0.05%

B9: GPR171: original human GPR171 (protein, listed as Homo sapiens)
chain: MTNSSFFCPVYKDLEPFTYFFYLVFLVGIIGSCFATWAFIQKNTNHRCVSIYLINLLTADFLLTLALPVKIVVDLGVAPWKLKIFHCQVTACLIYINMYLSIIFLAFVSIDRCLQLTHSCKIYRIQEPGFAKMISTVVWLMVLLIMVPNMMIPIKDIKEKSNVGCMEFKKEFGRNWHLLTNFICVAIFLNFSAIILISNCLVIRQLYRNKDNENYPNVKKALINILLVTTGYIICFVPYHIVRIPYTLSQTEVITDCSTRISLFKAKEATLLLAVSNLCFDPILYYHLSKAFRSKVTETFASPKETKAQKEKLRCENNA
  change in membrane expression level by the consensus design method: increase
  Original Membrane expression level (%): 91.17%

B10: VN1R2: original human vomeronasal receptor VN1R2 (protein, listed as Homo sapiens)
chain: MTHTLYPTPFALYPINISAAWHLGPLPVSCFVSNKYQCSLAFGATTGLRVLVVVVPQTQLSFLSSLCLVSLFLHSLVSAHGEKPTKPVGLDPTLFQVVVGILGNFSLLYYYMFLYFRGYKPRSTDLILRHLTVADSLVILSKRIPETMATFGLKHFDNYFGCKFLLYAHRVGRGVSIGSTCLLSVFQVITINPRNSRWAEMKVKAPTYIGLSNILCWAFHMLVNAIFPIYTTGKWSNNNITKKGDLGYCSAPLSDEVTKSVYAALTSFHDVLCLGLMLWASSSIVLVLYRHKQQVQHICRNNLYPNSSPGNRAIQSILALVSTFALCYALSFITYVYLALFDNSSWWLVNTAALIIACFPTISPFVLMCRDPSRSRLCSICCRRNRRFFHDFRKM
  change in membrane expression level by the consensus design method: increase
  Original Membrane expression level (%): −0.05%

B11: VN1R4: original human vomeronasal receptor VN1R4 (protein, listed as Homo sapiens)
chain: MASRYVAVGMILSQTVVGVLGSFSVLLHYLSFYCTGCRLRSTDLIVKHLIVANFLALRCKGVPQTMAAFGVRYFLNALGCKLVFYLHRVGRGVSIGTTCLLSVFQVITVSSRKSRWAKLKEKAPKHVGFSVLLCWIVCMLVNIIFPMYVTGKWNYTNITVNEDLGYCSGGGNNKIAQTLRAMLLSFPDVLCLGLMLWVSSSMVCILHRHKQRVQHIDRSNLSPRASPENRATQSILILVSTFVSSYTLSCLFQVCMALLDNPNSLLVNTSALMSVCFPTLSPFVLMSCDPSVYRFCFAWKR
  change in membrane expression level by the consensus design method: increase
  Original Membrane expression level (%): 0.37%
